Activity change, negative = decreased viability data for 100 molecules are collected here from PubChem BioAssay AID540335 (Broad Institute, 2011).

Each structure is given as a SMILES string. Among all 1,300 compounds or so, about 270 (21%) were called active.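 Rule for the calls: active = dose-dependent rise or fall in viability, either side of zero, with half-maximal concentration at or below a set limit; inconclusive = flat curve at 30 to 70% viability loss, or poor fit; inactive = flat within 30% either way, or potency beyond limit.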 The list shows a part of the results. Results with a measured potency or affinity are listed apart.

A short description of the assay: A375 melanoma cell viability reduction, dose response, counter-screen for MITF modulator project, cherry-pick samples, set 2 (AID 540335).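 Note: A375 human melanoma cells which do not depend on MITF; 0% = median of neutral control wells and 100% = double that signal.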 Particulars: CellTiter-Glo ATP luminescence, 24 h; at 35 µM (top of the series). A general note: The purpose of a counterscreen is to sort out artefacts and off-target activity.
For `CCOC(=O)c1[nH]cnc1N=Nc1c(O)ccc2ccccc12`, the activity change, negative = decreased viability is inactive: -38%.
As for `COc1ccc(-n2c(C)cc(C(=O)CCl)c2C)cc1`, the activity change, negative = decreased viability was inactive: -8.15%.
For `CC(C)N=c1c([N+](=O)[O-])nn(C)n1O`, the activity change, negative = decreased viability is inactive: 0.56%.
Take `CC(=O)OCCCNc1cc(Sc2ccc(Cl)cc2)c2nonc2c1[N+](=O)[O-]`: the activity change, negative = decreased viability is inactive: -14.9%.
For the molecule `COc1cc2c(cc1OC)C(c1ccccc1)N(C(=O)CCl)CC2` (stereo not given), the activity change, negative = decreased viability was inactive: -29.7%.
For the molecule `Cc1ccc(C#CC[N+]2(CC#Cc3ccc(C)cc3)CCCCC2)cc1`, the activity change, negative = decreased viability was inactive: -31.7%.
`CCc1nc2oc3ccc(C)cc3c(=O)c2cc1C(=O)OC`: the activity change, negative = decreased viability was inactive: 0.143%.
Turning to `O=C(N/N=C/c1ccc([N+](=O)[O-])s1)C(O)c1ccccc1` (stereo not given), the activity change, negative = decreased viability is inactive: -11.8%.
The value for `CC(=O)CSc1ccc(-c2nc3cc(C)c(C)cc3[nH]2)cn1` was inactive: 0.812%; that for `Cc1cccc(N(O)C(=O)Nc2cccc(Cl)c2)c1` was inactive: 2.44%; that for `Cc1ccc(C)c(C(=O)Cn2ncc(Cl)c(Cl)c2=O)c1` was inactive: 78.1%.
Consider `CC(C)(C)c1cc(NCCCn2ccnc2)n2ncc(-c3ccccc3)c2n1`, for which the activity change, negative = decreased viability is inactive: -23.5%.
`CCOC(=O)CSC1=NC(=O)/C(=C\c2ccc(OC(C)=O)cc2)S1`: the activity change, negative = decreased viability is inactive: -22.6%.
On to `CC1(C)Cc2c(sc(NC(=O)c3ccc4ncsc4c3)c2C(N)=O)C(C)(C)N1`, for which the activity change, negative = decreased viability was inactive: -11.1%.
Turning to `Clc1ccc(-c2nc(-c3ccncc3)no2)c(Cl)c1`, the activity change, negative = decreased viability was inactive: 4.85%.
The same measure for `O=C(N/N=C/c1ccccc1)c1ccco1`: inactive: -0.119%.
With `COc1cccc(/C=N/NC(=O)c2cccs2)c1`, the activity change, negative = decreased viability is inactive: 3.42%.
With `Cc1ccc2nc(NC(=O)CCCC(=O)O)sc2c1`, the activity change, negative = decreased viability is inactive: 12%.
For `CCCCN1CCc2c1nc1ccc(Br)cc1c2N`, the activity change, negative = decreased viability is inactive: -11.7%.
In the case of `NCCCNc1nc(N)c([N+](=O)[O-])c(NC2CCCCC2)n1`, the activity change, negative = decreased viability is inactive: -24%.
The value for `COc1ccc(COC(=O)c2n[nH]c3ccccc23)cc1F` was inactive: 6.51%; that for `O=C(CCl)N1N=C(c2ccco2)CC1c1cccs1` (stereo not given) was inactive: -31.6%; that for `O=C(Nc1ccccc1F)C(=O)Nc1cccc2ccccc12` was inactive: -6.03%.
For `COc1ccc(NCc2nc3ccccc3n2C)cc1`, the activity change, negative = decreased viability is inactive: -15.4%.
Regarding `N#Cc1cc2c(nc1SC1CC(=O)N(c3ccccc3)C1=O)CCC2` (stereo not given), the activity change, negative = decreased viability was inactive: 2.48%.
The same measure for `c1ccc(C[n+]2cccc3c4ccccc4ccc32)cc1`: inactive: -9.04%.
As to `CCOCCCNC(=O)/C(C#N)=C/c1ccc([N+](=O)[O-])o1`, the activity change, negative = decreased viability was inactive: 4.45%.
The value for `O=C(N/N=C/c1ccc(F)cc1)c1c(O)c2ccccc2[nH]c1=O` was inactive: -19.2%; that for `COCCNC(=O)c1cc2sc3ccccc3c2s1` was inactive: 8.96%; that for `CC1CCCCC1NC(=O)/C(C#N)=C/c1ccccc1F` (stereo not given) was inactive: -7.44%.
For the molecule `O=C(N/N=C/c1ccc([N+](=O)[O-])s1)c1cccc(Br)c1`, the activity change, negative = decreased viability is inactive: -11.5%.
With `O=C(NC(=S)Nc1ccccn1)c1cccc([N+](=O)[O-])c1`, the activity change, negative = decreased viability was inactive: 6.18%.
With `O=C(Cc1ccc2c(c1)OCO2)NN=Cc1ccc([N+](=O)[O-])o1`, the activity change, negative = decreased viability was inactive: -3.36%.
Take `O=C(O)c1cc2ccccc2c(N=Nc2cccnc2)c1O`: the activity change, negative = decreased viability was inactive: -5.09%.
As to `COc1ccccc1NC(=O)c1nc(S(=O)(=O)Cc2ccccc2)ncc1Cl`, the activity change, negative = decreased viability was inactive: -24.6%.
Take `CCCOC(=O)c1ccc(NC(=O)C2CCCO2)cc1` (stereo not given): the activity change, negative = decreased viability is inactive: -5.07%.
Regarding `Cc1ccc(NC(=O)c2ccc([N+](=O)[O-])s2)cc1S(=O)(=O)N1CCOCC1`, the activity change, negative = decreased viability is inactive: -13.4%.
For `Cc1ccc2nc(-c3cccnc3)oc2c1`, the activity change, negative = decreased viability is inactive: -0.651%.
For the molecule `O=C(C[n+]1cccc2ccccc21)c1ccc([N+](=O)[O-])cc1`, the activity change, negative = decreased viability was inactive: -6.09%.
For the molecule `CC(=O)c1c(C)[nH]c(C(=O)Nc2ccc(C)c(C)c2)c1C`, the activity change, negative = decreased viability is inactive: 1.51%.
The value for `CC(C)c1ccc(/C=N/Nc2ccc(C(=O)O)cc2)cc1` was inactive: 10%; that for `CC(C)N=C(NS(=O)(=O)c1ccccc1)C(Cl)(Cl)Cl` was inactive: 2.01%.
The value for `CCCC(=O)N1CCN(c2ccc(NC(=O)c3ccc([N+](=O)[O-])o3)cc2)CC1` was inactive: 11.4%; that for `COc1ccc(-n2cc(-c3ccc(C)cc3)[n+]3c2SCC3)cc1` was inactive: -17.9%.
`COc1ccc2cc3cc(C(=O)NCCc4ccc(OC)c(OC)c4)oc3nc2c1`: the activity change, negative = decreased viability is inactive: -2.65%.
With `O=C(Nc1ccccc1Cl)c1cc(=O)c2ccccc2o1`, the activity change, negative = decreased viability was inactive: 8.01%.
As for `Cc1cc2ncn(/N=C/c3ccc([N+](=O)[O-])o3)c2cc1C`, the activity change, negative = decreased viability is inactive: -15.1%.
On to `Cc1cc(NC(=O)c2ccc([N+](=O)[O-])o2)ccc1NC(=O)c1ccco1`, for which the activity change, negative = decreased viability is inactive: -30.9%.
Consider `Cc1ccc(OCC(=O)Nc2cccc(C)n2)c(C)c1`, for which the activity change, negative = decreased viability is inactive: 4.74%.
As to `CCOC(=O)/C=c1\s/c(=C\c2ccc3cc(OC)ccc3c2)c(=O)n1CC(=O)NCC1CCCO1` (stereo not given), the activity change, negative = decreased viability is inactive: -36.3%.
The same measure for `c1ccc(Cc2cc(-c3ccccc3)on2)cc1`: inactive: 7.4%; for `Cc1[nH]n(-c2ccccc2)c(=O)c1N=Nc1cccc(C(=O)O)c1`: inactive: 6.87%.
Consider `N#Cc1cnc2sc3ccccc3n2c1=N`, for which the activity change, negative = decreased viability is inactive: 5.98%.
As for `O=C(Nc1ccc2c(c1)OCCO2)c1coc2ccccc2c1=O`, the activity change, negative = decreased viability is inactive: -0.104%.
For the molecule `CCOC(=O)c1ccc(NC(=O)c2ccnn2C)cc1`, the activity change, negative = decreased viability is inactive: 9.45%.
On to `O=[N+]([O-])/C=C\c1ccc(N2CCOCC2)cc1`, for which the activity change, negative = decreased viability is inactive: -34%.
Take `N/C(=N\OC(=O)c1cccc(F)c1)c1cccc([N+](=O)[O-])c1`: the activity change, negative = decreased viability is inactive: 3.72%.
For `COc1cc2c(cc1OC)C(C)N(S(=O)(=O)c1cnc(Cl)c(Cl)c1)CC2` (stereo not given), the activity change, negative = decreased viability is inactive: -19.7%.
As to `Cc1ccc2c(C(=O)CCl)c(C)[nH]c2c1`, the activity change, negative = decreased viability was inactive: -16.4%.
Regarding `O=C(Cn1cnc2ccccc2c1=O)Nc1ccc2c(c1)OCCO2`, the activity change, negative = decreased viability was inactive: -0.724%.
On to `CC(OC(=O)c1ccc([N+](=O)[O-])s1)C(=O)NC1CCCCC1C` (stereo not given), for which the activity change, negative = decreased viability is inactive: -8.84%.
As for `CCOC(=O)c1cn2nc(Oc3ccccc3)ccc2n1`, the activity change, negative = decreased viability was inactive: -4.82%.
For `COc1ccc(NC(=O)c2scc(S(=O)(=O)C(C)C)c2N)cc1`, the activity change, negative = decreased viability was inactive: 0.489%.
The same measure for `Cc1cc(C(=O)Nc2ccc([N+](=O)[O-])cn2)cs1`: inactive: -0.268%; for `Nc1ccccc1SC1CC(=O)N(c2ccc3c(c2)OCCO3)C1=O` (stereo not given): inactive: 6.18%; for `CCCOCc1ccc(O)c2ncccc12`: inactive: -26.4%.
In the case of `ClC1(Cl)CC1CSc1nnc(-c2ccncc2)o1` (stereo not given), the activity change, negative = decreased viability was inactive: 11.6%.
On to `CC(C)CC(=O)NC(c1cccs1)c1ccc2cccnc2c1O` (stereo not given), for which the activity change, negative = decreased viability was inactive: -35.5%.
As for `Cc1cc(Br)ccc1NC(=O)CNC(=O)Cn1ncc(Cl)c(Cl)c1=O`, the activity change, negative = decreased viability was inactive: -5.62%.
Turning to `CCOc1ccc(C(=O)Nc2cccc(C(=O)O)c2C)cc1Cl`, the activity change, negative = decreased viability is inactive: -2.49%.
As for `CCOc1ccc(NC(=O)c2ccc3snnc3c2)cc1`, the activity change, negative = decreased viability is inactive: -3.32%.
With `CC(=O)Nc1ccc(-c2nc3ccccc3o2)cc1`, the activity change, negative = decreased viability was inactive: 8.49%.
The same measure for `COc1cc(C2C(C#N)=C(N)Oc3cc4c(cc32)OCO4)cc(OC)c1OC` (stereo not given): inactive: 8.17%; for `O=C(/C=C/c1ccc([N+](=O)[O-])s1)N1CCCCC1`: inactive: -9.74%.
`CC1=NOC(=O)/C1=C\c1ccc(-c2cccc(Cl)c2)o1`: the activity change, negative = decreased viability was inactive: -5.17%.
Turning to `COC(=O)CCS(=O)(=O)c1nc(-c2ccccc2)cc(C(F)(F)F)n1`, the activity change, negative = decreased viability is inactive: 47.7%.
With `O=C(Nc1nc(-c2ccccn2)cs1)c1ccccc1-n1cnnn1`, the activity change, negative = decreased viability was inactive: -39.2%.
Turning to `CN(C)c1cc[n+](CC(=O)c2ccc(-c3ccccc3)cc2)cc1`, the activity change, negative = decreased viability was inactive: -14.8%.
As to `C=Cc1ncc(OC)c2c1[nH]c1ccccc12`, the activity change, negative = decreased viability is inactive: 14.5%.
Turning to `Cc1ccc(NC(=O)c2ccccc2)cc1`, the activity change, negative = decreased viability is inactive: 3.62%.
The same measure for `CC(C)(C)c1ccc(C(=O)Nc2ccc(CC(=O)O)cc2)o1`: inactive: -10.4%.
The same measure for `O=C(C#Cc1ccccc1)c1cccc([N+](=O)[O-])c1`: inactive: 3.14%.
The same measure for `O=C(Cn1ncc(Cl)c(Cl)c1=O)N1CCOCC1`: inactive: 38.5%.
For `O=C(Nc1ccc(Cl)cc1)N1CC=CCC1`, the activity change, negative = decreased viability was inactive: 6.04%.
With `CCc1ccc(NC2=CC(=O)C(=O)c3ccccc32)cc1`, the activity change, negative = decreased viability is inactive: -32.6%.
For `Cc1nc(C)c(C(=O)N/N=C/c2cc(Br)ccc2O)s1`, the activity change, negative = decreased viability is inactive: -27.5%.
Regarding `COc1ccc(NC(=O)CCC(=O)N/N=C/c2ccc([N+](=O)[O-])s2)cc1`, the activity change, negative = decreased viability was inactive: -23.2%.
As to `O=C(NC1CCCCCC1)c1cc2ccccc2oc1=O`, the activity change, negative = decreased viability is inactive: -11.8%.
Regarding `CCCN1C(=O)c2ccc(C(=O)Nc3cc(C)ccc3O)cc2C1=O`, the activity change, negative = decreased viability is inactive: -0.588%.
The value for `Cc1cc(NCCCn2ccnc2)n2ncc(-c3ccccc3)c2n1` was inactive: -8.96%; that for `CCOc1cc(NC(=O)CCl)c(OCC)cc1NC(=O)CCl` was inactive: -7.25%.
For the molecule `Cc1cc(C(=O)O/N=C(\N)c2ccncc2)ccc1[N+](=O)[O-]`, the activity change, negative = decreased viability is inactive: 5.55%.
Regarding `CC(C)=CCc1c(O)ccc2c1OC(c1ccc(O)c(O)c1)CC2=O` (stereo not given), the activity change, negative = decreased viability was inactive: 3.17%.
Turning to `CCC(=O)Nc1cc(C(=O)OCC(=O)c2ccccc2Cl)ccc1C`, the activity change, negative = decreased viability was inactive: 9.78%.
The same measure for `CCOC(=O)c1sc(NC(=O)Nc2ccc(Cl)cc2)nc1C`: inactive: 6.69%; for `CCOc1cc(/C=C\[N+](=O)[O-])ccc1OCC(=O)N1CCOCC1`: inactive: -14.2%; for `COc1ccccc1NC(=O)c1cnc(SCC(=O)NCC2CCCO2)n(C)c1=O` (stereo not given): inactive: 0.027%.
For `O=C(Cn1nnc(-c2ccccc2Cl)n1)N1CCCCC1`, the activity change, negative = decreased viability is inactive: 1.74%.
The same measure for `Cc1cc(NC(=O)c2ccc(Cl)cc2Cl)no1`: inactive: 8.99%; for `Clc1nccnc1N/N=C/c1ccc(Br)cc1`: inactive: -29.2%.
